Assay results as given in patent US12527849B2, “Apparatus for determining administration form of a composition of an engineered virus-based nanoparticle for a treatment of an autoimmune condition” (Diamante Srl, priority 2021, dated 2026).
At least one compound was matched to its structure with a doubt left.

Experiments:
[1] = system: CD4+CD25+Foxp3+ Treg cells; experiment: Splenic regulatory T cells evaluation, CIA route study; format: in vivo, mice; conditions: Dexamethasone oral 1 mg/kg
TGF-β1 = experiment: Cytokine ELISA in CIA mice, day 60: TGF-β1; format: in vivo; conditions: serum, pooled from five CIA mice, listed as dexamethasone
Text: With continued reference to FIG. 1, in some embodiments, administration 116 may be done to an animal. As a non-limiting example, the animal may include a mouse, a fish, a rabbit, human, and the like. As a non-limiting example, administration 116 of composition of the engineered virus-based nanoparticle for a treatment of an autoimmune condition may be done to dilute, brown, and non-agouti (DBA) mice based on their susceptibility to collagen-induced arthritis (CIA). Female DBA/1 mice 6 to 8 weeks of age may be maintained under specific pathogen-free conditions. CIA may be induced by the intradermal tail base injection of 100 μg of chicken type II collagen (Sigma-Aldrich) as previously described. Five mice per group may be immunized on days 0 and 21 to induce arthritis. The onset of disease may be confirmed on the day that swelling or erythema may be observed in any paw, typically 4 to 10 days after the second immunization. Each experimental group may be treated seven times, 5 days apart, starting from day 28 after the first immunization, with intraperitoneal injections of saline (200 μI per mouse), TBSV·pLIp1, TBSV·pFADK2, pLIp1+IFA, and pFADK2+IFA (all 50 μg per mouse in 200 μl) or dexamethasone (5 μg per mouse in 200 μl). […] CIA may be assessed using a macroscopic score system based on the visual identification of arthritic limbs.

[2] = system: pro-inflammatory cytokines; experiment: Pro-inflammatory cytokines in sera of CIA Collagen mice (ELISA, day 58): whole panel, in words; format: in vivo; conditions: Dexamethasone oral 1 mg/kg

Structure (SMILES): C[C@@H]1C[C@H]2[C@@H]3CCC4=CC(=O)C=C[C@]4(C)[C@@]3(F)[C@@H](O)C[C@]2(C)[C@@]1(O)C(=O)CO [Dexamethasone, dexamethasone]
- CD4+CD25+Foxp3+ Treg cells population in splenocytes compared to CIA Collagen mice (in words) [1]: significantly elevated
- TGF-β1 (TGF-β1): therapeutic effect driven by TGFβ
- pro-inflammatory cytokines levels compared with CIA collagen group (in words) [2]: significantly decreased
